The values that follow come from publication doi:10.1101/2020.02.05.923433 (bioRxiv, 2020).

By UniProt entry, the sequences of proteins in these tests, tags left out.
UniProt O75901: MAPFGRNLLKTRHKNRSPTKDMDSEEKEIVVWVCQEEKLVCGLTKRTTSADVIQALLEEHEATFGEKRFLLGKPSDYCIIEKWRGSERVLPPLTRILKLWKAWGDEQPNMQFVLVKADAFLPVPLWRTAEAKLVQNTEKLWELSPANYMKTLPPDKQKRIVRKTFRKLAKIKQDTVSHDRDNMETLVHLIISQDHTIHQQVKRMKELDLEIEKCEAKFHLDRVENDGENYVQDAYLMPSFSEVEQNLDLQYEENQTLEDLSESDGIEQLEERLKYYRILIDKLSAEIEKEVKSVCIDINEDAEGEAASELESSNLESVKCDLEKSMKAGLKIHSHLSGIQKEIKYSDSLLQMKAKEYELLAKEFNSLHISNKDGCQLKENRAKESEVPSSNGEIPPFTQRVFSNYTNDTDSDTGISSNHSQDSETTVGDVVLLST

No constants are given. Whether binding was seen depends on the method and setting. In cells and extracts the contact can be indirect. Some binding calls cover weakened binding; strength is not graded here. Tags and fused reporters may be left off the sequences shown.

Holding throughout (assay): co-IP
The target in one assay is T1, full-length FLAG-RASSF8 (UniProt Q8NHQ8).
T1 sequence: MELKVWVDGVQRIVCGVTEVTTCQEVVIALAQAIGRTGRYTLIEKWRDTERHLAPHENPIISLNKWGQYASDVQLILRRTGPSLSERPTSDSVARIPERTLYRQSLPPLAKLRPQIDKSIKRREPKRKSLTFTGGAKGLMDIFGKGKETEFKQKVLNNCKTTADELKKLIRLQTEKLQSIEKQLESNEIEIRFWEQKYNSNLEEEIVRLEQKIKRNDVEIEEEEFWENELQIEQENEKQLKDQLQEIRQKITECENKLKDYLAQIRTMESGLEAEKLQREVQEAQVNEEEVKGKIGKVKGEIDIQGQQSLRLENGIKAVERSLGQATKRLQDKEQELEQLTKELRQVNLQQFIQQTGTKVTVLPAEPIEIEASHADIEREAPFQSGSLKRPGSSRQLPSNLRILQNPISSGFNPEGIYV

In the next assay the target is T2, full-length FLAG-RASSF6 (UniProt Q6ZTQ3).
T2 sequence: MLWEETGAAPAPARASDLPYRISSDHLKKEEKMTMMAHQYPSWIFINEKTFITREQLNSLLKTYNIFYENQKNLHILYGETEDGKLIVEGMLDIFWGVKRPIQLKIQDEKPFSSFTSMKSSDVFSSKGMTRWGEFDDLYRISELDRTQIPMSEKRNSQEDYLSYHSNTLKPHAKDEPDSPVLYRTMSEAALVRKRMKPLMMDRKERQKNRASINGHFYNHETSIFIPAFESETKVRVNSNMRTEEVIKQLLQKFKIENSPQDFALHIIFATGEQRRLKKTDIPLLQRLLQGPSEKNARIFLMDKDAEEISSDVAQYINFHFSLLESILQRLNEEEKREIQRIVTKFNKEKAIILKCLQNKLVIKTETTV

The target of assay [1] is T3, full-length FLAG-RASSF1A (human) (UniProt Q9NS23).
T3 sequence: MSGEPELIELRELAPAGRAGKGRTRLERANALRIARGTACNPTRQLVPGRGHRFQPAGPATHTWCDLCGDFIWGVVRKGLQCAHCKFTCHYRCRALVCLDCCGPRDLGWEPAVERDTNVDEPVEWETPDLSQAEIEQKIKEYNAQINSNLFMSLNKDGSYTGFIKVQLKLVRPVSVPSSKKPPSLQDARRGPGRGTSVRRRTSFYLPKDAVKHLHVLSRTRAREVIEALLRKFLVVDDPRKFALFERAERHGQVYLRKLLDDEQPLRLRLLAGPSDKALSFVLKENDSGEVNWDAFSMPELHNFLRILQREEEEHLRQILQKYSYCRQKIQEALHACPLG

Assay [2] concerns the target T4, full-length FLAG-RASSF2 (human) (UniProt P50749).
T4 sequence: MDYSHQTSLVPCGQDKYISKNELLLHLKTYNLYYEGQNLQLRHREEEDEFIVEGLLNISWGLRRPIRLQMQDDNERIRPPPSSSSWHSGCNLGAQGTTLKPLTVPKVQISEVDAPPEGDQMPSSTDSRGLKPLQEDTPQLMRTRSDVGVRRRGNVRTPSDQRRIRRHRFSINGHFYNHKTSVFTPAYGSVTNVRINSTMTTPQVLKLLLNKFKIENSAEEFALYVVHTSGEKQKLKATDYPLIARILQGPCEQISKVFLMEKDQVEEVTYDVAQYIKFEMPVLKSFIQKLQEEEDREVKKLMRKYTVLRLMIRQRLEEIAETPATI

Assay [3] concerns the target T5, full-length FLAG-RASSF10 (mouse) (UniProt Q8BL43).
T5 sequence: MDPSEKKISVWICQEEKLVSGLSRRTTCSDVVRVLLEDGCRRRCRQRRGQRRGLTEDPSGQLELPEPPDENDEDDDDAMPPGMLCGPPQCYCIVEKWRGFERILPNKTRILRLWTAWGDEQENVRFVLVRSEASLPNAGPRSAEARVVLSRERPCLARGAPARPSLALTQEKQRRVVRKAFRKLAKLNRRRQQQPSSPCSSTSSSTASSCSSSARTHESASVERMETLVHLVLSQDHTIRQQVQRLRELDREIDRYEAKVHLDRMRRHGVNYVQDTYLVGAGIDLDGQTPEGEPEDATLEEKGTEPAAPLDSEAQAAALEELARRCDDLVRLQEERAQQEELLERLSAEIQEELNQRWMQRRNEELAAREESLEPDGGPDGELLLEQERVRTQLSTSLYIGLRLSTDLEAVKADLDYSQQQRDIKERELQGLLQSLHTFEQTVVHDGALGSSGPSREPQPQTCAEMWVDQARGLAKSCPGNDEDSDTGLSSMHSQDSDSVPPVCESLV

Assay [4] has as its target T6, full-length FLAG-RASSF4 (mouse) (UniProt Q8CB96).
T6 sequence: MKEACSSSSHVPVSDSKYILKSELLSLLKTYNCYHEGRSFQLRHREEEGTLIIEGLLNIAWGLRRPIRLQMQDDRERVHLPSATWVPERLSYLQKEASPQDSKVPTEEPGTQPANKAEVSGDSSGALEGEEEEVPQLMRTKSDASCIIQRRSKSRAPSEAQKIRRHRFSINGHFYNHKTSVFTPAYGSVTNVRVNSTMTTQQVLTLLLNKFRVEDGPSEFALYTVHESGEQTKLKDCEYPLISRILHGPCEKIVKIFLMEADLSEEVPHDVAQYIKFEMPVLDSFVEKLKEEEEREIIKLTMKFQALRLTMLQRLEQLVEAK

Another assay deals with T7, full-length FLAG-RASSF3 (UniProt Q86WH2).
T7 sequence: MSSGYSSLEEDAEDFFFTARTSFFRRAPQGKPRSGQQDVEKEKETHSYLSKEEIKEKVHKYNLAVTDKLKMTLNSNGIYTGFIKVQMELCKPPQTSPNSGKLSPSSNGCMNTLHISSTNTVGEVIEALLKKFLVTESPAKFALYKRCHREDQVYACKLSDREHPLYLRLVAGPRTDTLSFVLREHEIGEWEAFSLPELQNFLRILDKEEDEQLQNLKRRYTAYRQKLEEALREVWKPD

The target of assay [5] is full-length FLAG-RASSF9 (human) (UniProt O75901).
In assay [6] the target is T8, full-length FLAG-RASSF5 (human) (UniProt Q8WWW0).
T8 sequence: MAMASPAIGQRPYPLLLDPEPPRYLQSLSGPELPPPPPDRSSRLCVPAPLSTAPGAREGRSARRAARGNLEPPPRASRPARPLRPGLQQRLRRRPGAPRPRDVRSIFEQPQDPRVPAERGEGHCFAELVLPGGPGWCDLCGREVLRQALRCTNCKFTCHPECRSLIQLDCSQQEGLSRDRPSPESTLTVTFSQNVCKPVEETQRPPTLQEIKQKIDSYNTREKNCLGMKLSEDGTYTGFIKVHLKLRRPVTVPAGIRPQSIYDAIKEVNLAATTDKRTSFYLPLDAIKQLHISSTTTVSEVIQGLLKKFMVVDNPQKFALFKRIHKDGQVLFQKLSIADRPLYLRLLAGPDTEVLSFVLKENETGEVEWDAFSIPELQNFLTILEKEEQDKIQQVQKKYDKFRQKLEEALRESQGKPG

B1: GFP-MST1 (enzyme, UniProt Q13043)
chain: METVQLRNPPRRQLKKLDEDSLTKQPEEVFDVLEKLGEGSYGSVYKAIHKETGQIVAIKQVPVESDLQEIIKEISIMQQCDSPHVVKYYGSYFKNTDLWIVMEYCGAGSVSDIIRLRNKTLTEDEIATILQSTLKGLEYLHFMRKIHRDIKAGNILLNTEGHAKLADFGVAGQLTDTMAKRNTVIGTPFWMAPEVIQEIGYNCVADIWSLGITAIEMAEGKPPYADIHPMRAIFMIPTNPPPTFRKPELWSDNFTDFVKQCLVKSPEQRATATQLLQHPFVRSAKGVSILRDLINEAMDVKLKRQESQQREVDQDDEENSEEDEMDSGTMVRAVGDEMGTVRVASTMTDGANTMIEHDDTLPSQLGTMVINAEDEEEEGTMKRRDETMQPAKPSFLEYFEQKEKENQINSFGKSVPGPLKNSSDWKIPQDGDYEFLKSWTVEDLQKRLLALDPMMEQEIEEIRQKYQSKRQPILDAIEAKKRRQQNF
Regarding B1, the binding entry is on record as “no binding” with full-length FLAG-RASSF8; “binds” with full-length FLAG-RASSF6; “binds” in [1]; “binds” in assay [2]; “no binding” in [3]; “binds” in assay [4]. The results for the binding result (in the assay with full-length FLAG-RASSF3; in assay [5]; in assay [6]) were “binds”, “no binding” and “binds”, respectively.

B2: HIS-tagged ASPP1 (protein, UniProt Q96KQ4 1-1090)
chain: MMPMILTVFLSNNEQILTEVPITPETTCRDVVEFCKEPGEGSCHLAEVWRGNERPIPFDHMMYEHLQKWGPRREEVKFFLRHEDSPTENSEQGGRQTQEQRTQRNVINVPGEKRTENGVGNPRVELTLSELQDMAARQQQQIENQQQMLVAKEQRLHFLKQQERRQQQSISENEKLQKLKERVEAQENKLKKIRAMRGQVDYSKIMNGNLSAEIERFSAMFQEKKQEVQTAILRVDQLSQQLEDLKKGKLNGFQSYNGKLTGPAAVELKRLYQELQIRNQLNQEQNSKLQQQKELLNKRNMEVAMMDKRISELRERLYGKKIQLNRVNGTSSPQSPLSTSGRVAAVGPYIQVPSAGSFPVLGDPIKPQSLSIASNAAHGRSKSANDGNWPTLKQNSSSSVKPVQVAGADWKDPSVEGSVKQGTVSSQPVPFSALGPTEKPGIEIGKVPPPIPGVGKQLPPSYGTYPSPTPLGPGSTSSLERRKEGSLPRPSAGLPSRQRPTLLPATGSTPQPGSSQQIQQRISVPPSPTYPPAGPPAFPAGDSKPELPLTVAIRPFLADKGSRPQSPRKGPQTVNSSSIYSMYLQQATPPKNYQPAAHSALNKSVKAVYGKPVLPSGSTSPSPLPFLHGSLSTGTPQPQPPSESTEKEPEQDGPAAPADGSTVESLPRPLSPTKLTPIVHSPLRYQSDADLEALRRKLANAPRPLKKRSSITEPEGPGGPNIQKLLYQRFNTLAGGMEGTPFYQPSPSQDFMGTLADVDNGNTNANGNLEELPPAQPTAPLPAEPAPSSDANDNELPSPEPEELICPQTTHQTAEPAEDNNNNVATVPTTEQIPSPVAEAPSPGEEQVPPAPLPPASHPPATSTNKRTNLKKPNSERTGHGLRVRFNPLALLLDASLEGEFDLVQRIIYEVEDPSKPNDEGITPLHNAVCAGHHHIVKFLLDFGVNVNAADSDGWTPLHCAASCNSVHLCKQLVESGAAIFASTISDIETAADKCEEMEEGYIQCSQFLYGVQEKLGVMNKGVAYALWDYEAQNSDELSFHEGDALTILRRKDESETEWWWARLGDREGYVPKNLLGLYPRIKPRQRTLA
In the case of B2, the binding result in the assay with full-length FLAG-RASSF8 is “binds”; with full-length FLAG-RASSF6, “no binding”; in assay [1], “no binding”; in assay [2] it was “no binding”; in [3] it was “binds”; in assay [4], “no binding”. The binding entry in the assay with full-length FLAG-RASSF3 is “no binding”; in assay [5], “binds”; in assay [6], “no binding”.
